Tested on: APP/PS1 mice
Test: Intracerebral injection, induction of β-amyloidosis
Assay type: in vivo, mouse
Conditions: 2.5 μl intracerebral in 2.5 month old APP/PS1 mice, analysis after 8 weeks

nitrated Aβ1-42: synthetic Aβ1-42 nitrated at tyrosine 10 by peroxynitrite treatment
amyloid seeds localized distant from the injection side: able to induce amyloid seeds
